# ± gives the standard deviation of the averaged measurements. This is one part of the list. Repeats are few or missing, and single values can be far off.
# System: RAW 264.7 macrophages infected with S. aureus JE2-lux
# Assay: host macrophage viability (CellTiter-Fluor) relative to DMSO vehicle; higher = more viable host cells
# Settings: 10 µM; treatment time 4 h; gentamicin 50 µg/ml
row,Structure (SMILES),host macrophage viability [%]
1,COC(=O)COc1cc2c(-c3cc4cccc(OC)c4o3)cc(=O)oc2cc1C,126
2,Cc1onc(-c2ccccc2)c1C(=O)N1CCc2ccccc2C1,104
3,O=c1c2ccccc2nc2c3ccccc3c(Cl)nn12,111 ± 8.1
4,CC(=O)c1cccc(NC(=O)NC2CC3CCC(C2)N3Cc2ccc(F)cc2)c1 (stereo unspecified),99.2
5,O=C(Cn1c2c(c(=O)n3ncnc13)CCC2)Nc1ccccc1,113
6,CCn1nc(C)c2[nH]c(=S)n(CC3CCCO3)c(=O)c21 (stereo unspecified),106
7,O=C(CSc1ncnc2sc3c(c12)CCCC3)Nc1ccc(Br)cc1,109
8,CCOC(=O)C1=C(C)N=c2s/c(=C/c3cc([N+](=O)[O-])ccc3O)c(=O)n2C1c1cccs1 (stereo unspecified),107
9,COc1ccc(OC)c(NS(=O)(=O)c2cc(-c3ccn[nH]3)cs2)c1,115
10,O=C(CN1C(=O)S/C(=C\c2ccccc2)C1=O)NCCN1C(=O)CSC1=O,118
11,Cc1cc(C)c2sc(NNC(=O)C3COc4ccccc4O3)nc2c1 (stereo unspecified),107 ± 16
12,Cc1nn(-c2ccccc2)c2[nH]c(=O)c(CNC(c3ccccc3)c3ccco3)cc12 (stereo unspecified),115
13,O=C(Nc1ccc(Cl)cn1)c1ccc(SCCN2CCOCC2)nc1,110
14,COc1ccc2c(C)cc(SCC(=O)Nc3c(C)cccc3C)nc2c1,113
15,N#Cc1c(NC(=O)CSc2nnc3sc4ccccc4n23)sc2c1CCC2,116
16,Cc1cc(=O)[nH]c2c(C)cc(S(=O)(=O)Nc3ccc(O)cc3)cc12,132
17,COc1cc(/C=C(\C#N)c2nc(-c3ccc(F)cc3)cs2)cc([N+](=O)[O-])c1O,76.4
18,O=C(CN1CCC(n2cnc3cccnc32)CC1)Nc1nccs1,109
19,CCn1cc(C(=O)Nc2ccc(F)c(F)c2)c2nn(-c3ccccc3)c(=O)c-2c1,97.7
20,COc1ccc(Cl)cc1S(=O)(=O)Nc1ccc(-c2nnc(-c3ccccc3)o2)cc1,118
21,C=CCn1ccn(-c2cccc(Cl)c2)c(=O)c1=O,122
22,Cc1ccccc1-c1nc2n(CC(=O)Nc3nccs3)c(C)cc(=O)n2n1,122

row,Structure (SMILES),host macrophage viability [%]
1,Cc1nnc(NC(=O)CSc2nc(-c3ccccc3C)nc3cc(=O)[nH]n23)s1,102
2,CCOC(=O)c1sc2nc(NC(=O)c3ccc(N(C)C)cc3)sc2c1C,109
3,CCCN1CCN(c2ncnc3sc(C(=O)NCC4CCCO4)c(C)c23)CC1 (stereo unspecified),128
4,Clc1cccc(-n2ncc3c(NCc4ccco4)ncnc32)c1,120
5,Cc1cc(-n2ccnc(NCCc3ccccc3)c2=O)ccc1Br,130
6,COc1cc(N2CCn3c(nc4cc(Cl)ccc43)C2)ccc1NS(C)(=O)=O,119
7,Nc1nc(SCC(=O)NCc2ccc(F)cc2)[nH]c(=O)c1NC(=O)c1ccc(F)c(F)c1,104
8,CCOC(=O)CSC1=NS(=O)(=O)c2ccccc2N1,118
9,O=C(CN1C(=O)c2ccccc2S1(=O)=O)NC1=NN(c2ccccc2)C(=O)C1,128
10,CCc1nn(-c2ccccc2)c2nc(-c3ccccc3)nc(SCC(=O)NC(C)(C)C)c12,98.5
11,O=C(O)COc1ccccc1/C=C1/SC(=S)N(NC(=O)c2ccco2)C1=O,81.659 ± 0.0095
12,CCOc1cccc(-c2cc(C(=O)N/N=C3/C(=O)Nc4ccccc43)[nH]n2)c1,94.2
13,O=C(NN1C(=O)CSC1=S)c1c(F)cccc1F,106 ± 18
14,CCCc1cc(C(=O)NC(c2ccccc2)c2ccnn2C)[nH]n1 (stereo unspecified),112
15,O=C(NCc1cccnc1)c1ccc(OC(F)F)cc1,125
16,O=C(NCc1cccnc1)C(=O)NCC1OCCCN1S(=O)(=O)c1ccc(Cl)cc1 (stereo unspecified),119
17,CCn1c(C)cc2cc(NS(=O)(=O)c3ccc4[nH]c(=O)[nH]c(=O)c4c3)ccc21,117
18,Cc1cccc(OCc2nc(-c3ccc4c(c3)[nH]c(=O)c(=O)n4C(C)C)no2)c1,119
19,O=C(Nc1nc2ccc(Br)cc2s1)c1ccc(N2C(=O)CCC2=O)cc1,118
20,O=C(Nc1ccccc1Cl)c1cccn2c(-c3ccc(F)cc3)nnc12,115
21,Cc1nc2ccc(S(=O)(=O)Nc3cccc(-c4nc5cccnc5s4)c3C)cc2s1,114 ± 5.2
22,Cc1cccc(CSc2ncnc3[nH]cnc23)c1,99.8

row,Structure (SMILES),host macrophage viability [%]
1,Cn1c2ccc(F)cc2c2nnc(SCC(=O)Nc3cccc(O)c3)nc21,98.6
2,CN1CCN(c2nc(Nc3cccc(F)c3)c3cnn(-c4ccccc4)c3n2)CC1,101
3,COc1ccc(-c2n[nH]c(SC(CC(=O)NCc3cccnc3)c3ccc(OC)cc3)n2)cc1 (stereo unspecified),119
4,O=C(NCCc1c[nH]c2ccccc12)C(=O)NCC1OCCN1C(=O)c1ccc2c(c1)OCO2 (stereo unspecified),107
5,COc1ccnc(Cn2nc3c4ccccc4nc(C(C)(C)C)n3c2=O)c1OC,89.4
6,Cc1nn(-c2nc(-c3ccc(F)cc3)cs2)c(O)c1CCC(=O)N1CCOCC1,119
7,CCc1nn2c(=O)cc(CSc3nnc(-c4cccc(C)c4)o3)nc2s1,82.1
8,O=C(NC(c1ccccc1)c1cccnc1)c1cc2c([nH]c1=O)CCCCC2 (stereo unspecified),111
9,CC(=O)c1cccc(N/C=C(\C#N)c2nc(-c3cccc4ccccc34)cs2)c1,131
10,COC(=O)c1c(NC(=O)CC2Nc3ccccc3NC2=O)sc2c1CCC(C)C2 (stereo unspecified),124
11,Cc1nnc(SCC(=O)N2CCCCC2)n(N)c1=O,131
12,O=C(COc1ccc(Cl)cc1)Nc1nc2ccc3ccccc3c2s1,120
13,COc1ccc2[nH]c3c(=O)n(CCCCC(=O)NCc4cccnc4)c(=S)[nH]c3c2c1,99.6
14,COc1cccc(NC(=O)c2oc3ccccc3c2NC(=O)c2cccc([N+](=O)[O-])c2)c1,118 ± 7.8
15,O=C(CSc1nccc(O)n1)Nc1ccc(C(=O)NC2CC2)cc1,106
16,COC(=O)c1c(NC(=O)/C(C#N)=C/c2cccs2)sc(C)c1C,96.6
17,C=CCn1c(SCCC(=O)Nc2ccc3c(c2)OCO3)nc2sc3c(c2c1=O)CCCC3,115
18,COc1ccc2nc(N/N=C3/C(=O)N(c4ccccc4)N=C3C)sc2c1,99.7
19,Cc1sc2ncnc(Sc3nnnn3-c3ccccc3)c2c1C,111.5 ± 0.29
20,NC(=O)c1ccc(NC(=O)C(=O)N2CCC3(CC2)OCCN3S(=O)(=O)c2cccs2)cc1,109
21,COc1ccc(/N=C/c2c(Nc3ccc(Cl)cc3)nc3c(C)cccn3c2=O)cc1,121
22,Cc1ccc(-c2cc(C(F)(F)F)n3nc(C(=O)NCc4ccco4)nc3n2)cc1,111

# Six entries already listed, ordered by formula weight, falling:
row,Structure (SMILES),host macrophage viability [%]
21,Cc1nc2ccc(S(=O)(=O)Nc3cccc(-c4nc5cccnc5s4)c3C)cc2s1,114 ± 5.2
14,COc1cccc(NC(=O)c2oc3ccccc3c2NC(=O)c2cccc([N+](=O)[O-])c2)c1,118 ± 7.8
10,COC(=O)c1c(NC(=O)CC2Nc3ccccc3NC2=O)sc2c1CCC(C)C2 (stereo unspecified),124
20,O=C(Nc1ccccc1Cl)c1cccn2c(-c3ccc(F)cc3)nnc12,115
5,O=C(Cn1c2c(c(=O)n3ncnc13)CCC2)Nc1ccccc1,113
21,C=CCn1ccn(-c2cccc(Cl)c2)c(=O)c1=O,122
